Results as given in publication PMC7457527.
These are yes or no findings as the source states them, for the method shown. Binding seen in cells or lysates may run through a third protein. Some binding calls cover weakened binding; strength is not graded here. For some assays here: Tags and fused reporters may be left off the sequences shown. Each block holds one molecule with its values, some of them ahead of it.

Chains of the proteins cited; added tags and fusions are not shown. Residues count along the entry.
UniProt Q13586, residues 23-685: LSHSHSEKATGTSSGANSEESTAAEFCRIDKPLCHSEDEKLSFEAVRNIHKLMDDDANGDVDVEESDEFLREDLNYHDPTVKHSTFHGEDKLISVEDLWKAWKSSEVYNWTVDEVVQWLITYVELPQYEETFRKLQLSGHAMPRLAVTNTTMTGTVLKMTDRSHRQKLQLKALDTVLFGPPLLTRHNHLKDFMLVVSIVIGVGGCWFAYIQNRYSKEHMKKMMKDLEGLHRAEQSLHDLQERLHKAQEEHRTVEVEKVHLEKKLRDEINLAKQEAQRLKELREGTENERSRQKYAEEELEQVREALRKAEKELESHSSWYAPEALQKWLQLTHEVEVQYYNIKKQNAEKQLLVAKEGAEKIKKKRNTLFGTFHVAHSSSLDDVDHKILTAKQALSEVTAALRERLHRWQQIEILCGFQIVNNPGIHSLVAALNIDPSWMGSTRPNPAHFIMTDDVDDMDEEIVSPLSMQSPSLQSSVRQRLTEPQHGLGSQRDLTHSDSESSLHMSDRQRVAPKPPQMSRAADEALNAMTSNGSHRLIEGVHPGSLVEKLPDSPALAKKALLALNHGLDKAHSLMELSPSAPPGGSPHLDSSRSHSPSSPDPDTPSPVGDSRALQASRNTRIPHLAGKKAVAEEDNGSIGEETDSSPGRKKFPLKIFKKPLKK
UniProt P70302, residues 23-685: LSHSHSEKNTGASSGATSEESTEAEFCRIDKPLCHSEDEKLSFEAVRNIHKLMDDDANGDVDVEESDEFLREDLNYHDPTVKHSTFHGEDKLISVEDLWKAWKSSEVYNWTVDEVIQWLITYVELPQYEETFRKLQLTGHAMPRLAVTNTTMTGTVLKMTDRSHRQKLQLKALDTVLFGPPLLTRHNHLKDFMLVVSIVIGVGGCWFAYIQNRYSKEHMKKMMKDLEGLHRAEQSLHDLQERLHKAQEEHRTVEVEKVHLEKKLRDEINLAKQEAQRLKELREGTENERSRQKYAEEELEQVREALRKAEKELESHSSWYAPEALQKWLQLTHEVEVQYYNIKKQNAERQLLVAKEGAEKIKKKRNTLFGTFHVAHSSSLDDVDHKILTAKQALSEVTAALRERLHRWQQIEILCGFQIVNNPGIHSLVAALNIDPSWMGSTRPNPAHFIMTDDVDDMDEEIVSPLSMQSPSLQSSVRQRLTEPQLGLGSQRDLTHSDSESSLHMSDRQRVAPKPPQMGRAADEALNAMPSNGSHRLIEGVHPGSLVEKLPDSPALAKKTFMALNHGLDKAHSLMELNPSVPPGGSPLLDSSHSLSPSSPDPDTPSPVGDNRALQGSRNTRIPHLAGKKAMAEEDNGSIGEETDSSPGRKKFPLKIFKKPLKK

Tests used:
[1] = target: T1, C-terminal GFP-tagged TRPP2 (polycystin-2) (human) (UniProt Q13563); test: co-IP; HEK293 cells co-transfected with tagged TRPP2 constructs and STIM1; extraction in 1% Nonidet P-40, 150 mmol/L NaCl, 20 mmol/L Tris-HCl pH 8.0; IP with GFP or mCherry antibody overnight at 4 °C, protein A, immunoblot
T1 sequence: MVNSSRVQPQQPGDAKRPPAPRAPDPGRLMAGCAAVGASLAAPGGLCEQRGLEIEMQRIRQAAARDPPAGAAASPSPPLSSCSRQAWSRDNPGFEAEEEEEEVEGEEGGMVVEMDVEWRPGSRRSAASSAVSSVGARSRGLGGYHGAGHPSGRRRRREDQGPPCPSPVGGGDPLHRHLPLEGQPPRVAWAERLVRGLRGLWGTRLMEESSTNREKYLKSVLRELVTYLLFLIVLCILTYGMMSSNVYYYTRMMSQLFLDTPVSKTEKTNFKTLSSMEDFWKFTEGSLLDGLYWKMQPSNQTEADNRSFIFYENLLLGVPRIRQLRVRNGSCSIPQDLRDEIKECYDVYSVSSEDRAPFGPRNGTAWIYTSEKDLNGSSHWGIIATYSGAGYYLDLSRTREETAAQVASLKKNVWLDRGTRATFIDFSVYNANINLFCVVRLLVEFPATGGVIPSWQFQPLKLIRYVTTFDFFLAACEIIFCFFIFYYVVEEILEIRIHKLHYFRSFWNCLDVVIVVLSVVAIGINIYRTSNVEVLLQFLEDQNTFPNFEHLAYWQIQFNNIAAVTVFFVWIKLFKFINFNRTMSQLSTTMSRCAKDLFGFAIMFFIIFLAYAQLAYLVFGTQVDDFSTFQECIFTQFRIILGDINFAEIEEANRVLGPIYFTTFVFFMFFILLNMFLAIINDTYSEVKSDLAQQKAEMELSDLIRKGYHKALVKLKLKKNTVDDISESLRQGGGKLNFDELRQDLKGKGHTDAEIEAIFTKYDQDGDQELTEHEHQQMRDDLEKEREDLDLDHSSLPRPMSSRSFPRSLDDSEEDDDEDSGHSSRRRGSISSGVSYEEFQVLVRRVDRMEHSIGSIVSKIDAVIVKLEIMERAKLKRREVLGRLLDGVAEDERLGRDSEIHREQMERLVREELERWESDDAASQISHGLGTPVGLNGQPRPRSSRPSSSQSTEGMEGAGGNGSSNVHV

[2] = target: T2, GFP-tagged TRPP2 without N1 (2-111aa, ∆N1) (human) (UniProt Q13563); test: as above
T2 sequence: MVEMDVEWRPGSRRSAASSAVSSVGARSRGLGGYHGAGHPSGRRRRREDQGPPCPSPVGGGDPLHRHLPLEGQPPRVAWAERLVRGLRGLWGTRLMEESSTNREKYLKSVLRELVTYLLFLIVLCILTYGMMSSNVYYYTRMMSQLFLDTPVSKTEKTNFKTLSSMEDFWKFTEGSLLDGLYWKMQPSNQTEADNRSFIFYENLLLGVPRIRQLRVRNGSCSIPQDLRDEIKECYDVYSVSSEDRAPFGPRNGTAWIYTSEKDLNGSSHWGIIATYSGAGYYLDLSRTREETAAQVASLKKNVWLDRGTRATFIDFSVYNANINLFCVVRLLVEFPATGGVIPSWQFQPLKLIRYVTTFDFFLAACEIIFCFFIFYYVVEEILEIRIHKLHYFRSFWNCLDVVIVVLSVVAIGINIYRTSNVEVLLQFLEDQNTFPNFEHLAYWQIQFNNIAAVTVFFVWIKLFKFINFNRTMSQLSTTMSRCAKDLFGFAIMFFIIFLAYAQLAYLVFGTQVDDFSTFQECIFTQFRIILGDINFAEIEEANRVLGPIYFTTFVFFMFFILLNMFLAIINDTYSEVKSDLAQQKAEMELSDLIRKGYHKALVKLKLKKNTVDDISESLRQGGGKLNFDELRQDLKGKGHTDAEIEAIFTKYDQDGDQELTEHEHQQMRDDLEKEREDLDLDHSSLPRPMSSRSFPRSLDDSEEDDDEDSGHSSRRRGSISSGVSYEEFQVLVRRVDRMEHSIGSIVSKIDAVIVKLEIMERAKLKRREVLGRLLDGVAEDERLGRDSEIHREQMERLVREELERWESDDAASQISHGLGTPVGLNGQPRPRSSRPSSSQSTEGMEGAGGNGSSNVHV

[3] = target: T3, GFP-tagged TRPP2 without N2 (112-221aa, ∆N2) (human) (UniProt Q13563); test: as above
T3 sequence: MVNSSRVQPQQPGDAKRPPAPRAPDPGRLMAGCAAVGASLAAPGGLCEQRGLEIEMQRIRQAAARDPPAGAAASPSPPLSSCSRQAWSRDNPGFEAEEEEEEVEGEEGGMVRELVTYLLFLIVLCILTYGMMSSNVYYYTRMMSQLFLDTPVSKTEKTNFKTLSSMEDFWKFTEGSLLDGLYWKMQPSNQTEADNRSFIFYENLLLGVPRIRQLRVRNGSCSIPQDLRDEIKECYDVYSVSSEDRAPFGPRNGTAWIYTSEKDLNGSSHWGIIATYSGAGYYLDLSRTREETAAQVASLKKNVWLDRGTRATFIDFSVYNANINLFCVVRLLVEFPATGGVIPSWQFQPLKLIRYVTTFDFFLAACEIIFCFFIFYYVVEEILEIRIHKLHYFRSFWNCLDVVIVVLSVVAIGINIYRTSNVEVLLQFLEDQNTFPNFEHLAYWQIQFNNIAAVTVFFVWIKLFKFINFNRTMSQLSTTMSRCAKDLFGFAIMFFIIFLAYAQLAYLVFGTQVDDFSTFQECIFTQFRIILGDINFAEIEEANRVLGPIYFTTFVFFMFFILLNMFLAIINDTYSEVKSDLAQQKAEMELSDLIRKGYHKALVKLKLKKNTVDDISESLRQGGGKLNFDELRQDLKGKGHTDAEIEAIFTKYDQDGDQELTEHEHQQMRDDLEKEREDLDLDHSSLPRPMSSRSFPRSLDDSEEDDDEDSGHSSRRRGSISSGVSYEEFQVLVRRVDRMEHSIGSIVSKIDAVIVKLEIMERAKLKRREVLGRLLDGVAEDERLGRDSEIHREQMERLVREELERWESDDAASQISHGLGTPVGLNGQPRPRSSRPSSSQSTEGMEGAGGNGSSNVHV

[4] = target: T4, GFP-tagged full-length TRPP2 (WT) (human) (UniProt Q13563); test: as above
T4 sequence: T1 sequence

[5] = target: T5, mCherry-TRPP2 (mCherry fused at the N-terminus of TRPP2) (human) (UniProt Q13563); test: FRET or BRET; sensitized emission FRET, GFP donor and mCherry acceptor, co-transfected HEK293 cells, Leica confocal; GFP-mCherry fusion as positive and separate GFP and mCherry as negative control
T5 sequence: T1 sequence

[6] = target: T6, endogenous TRPP2 of mouse vascular smooth muscle cells (mouse (endogenous in aortic VSMCs)) (UniProt O35245); test: proximity ligation; in situ Duolink PLA on fixed, permeabilized freshly isolated mouse VSMCs with anti-TRPP2 and anti-STIM1; anti-STIM1 alone as negative control; < 40 nm
T6 sequence: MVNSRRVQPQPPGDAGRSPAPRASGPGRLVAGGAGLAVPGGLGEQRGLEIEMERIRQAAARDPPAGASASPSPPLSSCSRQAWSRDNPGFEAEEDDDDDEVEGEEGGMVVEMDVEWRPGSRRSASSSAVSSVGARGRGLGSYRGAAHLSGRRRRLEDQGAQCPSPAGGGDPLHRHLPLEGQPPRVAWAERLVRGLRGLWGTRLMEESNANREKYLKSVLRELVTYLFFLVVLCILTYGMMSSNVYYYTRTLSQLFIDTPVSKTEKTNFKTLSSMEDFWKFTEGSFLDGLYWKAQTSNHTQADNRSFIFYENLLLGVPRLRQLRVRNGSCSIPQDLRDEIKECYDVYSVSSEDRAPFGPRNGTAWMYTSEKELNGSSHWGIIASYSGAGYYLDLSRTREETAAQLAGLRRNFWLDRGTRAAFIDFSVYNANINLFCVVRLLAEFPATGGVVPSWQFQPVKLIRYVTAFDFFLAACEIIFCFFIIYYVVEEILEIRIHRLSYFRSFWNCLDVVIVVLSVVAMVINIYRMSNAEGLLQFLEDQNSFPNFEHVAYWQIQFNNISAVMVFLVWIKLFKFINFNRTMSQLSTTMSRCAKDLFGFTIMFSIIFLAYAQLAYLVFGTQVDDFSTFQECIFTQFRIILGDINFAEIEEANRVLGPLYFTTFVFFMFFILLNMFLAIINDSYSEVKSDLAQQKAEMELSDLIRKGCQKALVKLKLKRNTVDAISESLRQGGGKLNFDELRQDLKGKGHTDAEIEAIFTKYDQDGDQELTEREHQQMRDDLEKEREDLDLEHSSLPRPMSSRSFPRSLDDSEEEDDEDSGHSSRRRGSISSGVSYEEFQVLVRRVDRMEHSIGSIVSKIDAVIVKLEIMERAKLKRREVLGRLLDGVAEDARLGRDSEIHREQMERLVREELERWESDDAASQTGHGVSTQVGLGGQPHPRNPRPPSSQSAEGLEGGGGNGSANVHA

[7] = target: T6, endogenous TRPP2 of mouse vascular smooth muscle cells (mouse (endogenous in aortic VSMCs)); test: co-IP; endogenous proteins of mouse aortic smooth muscle cells; extraction in 1% Nonidet P-40, 150 mmol/L NaCl, 20 mmol/L Tris-HCl pH 8.0; IP with anti-TRPP2 or anti-STIM1 overnight at 4 °C (no antibody as control), immunoblot
[8] = target: N-terminal mCherry-tagged STIM1 (stromal interaction molecule 1) (human) (UniProt Q13586); test: co-IP; HEK293 cells co-transfected with tagged TRPP2 constructs and STIM1; extraction in 1% Nonidet P-40, 150 mmol/L NaCl, 20 mmol/L Tris-HCl pH 8.0; IP with GFP or mCherry antibody overnight at 4 °C, protein A, immunoblot

Molecule: STIM1 co-expressed with the GFP-tagged TRPP2 constructs (from UniProt Q13586 23-685)
binding [2]: binds weakly | binding [3]: binds | binding [4]: binds

Molecule: STIM1-GFP (from UniProt Q13586 23-685)
binding [5]: binds

B1: C-terminal GFP-tagged TRPP2 (polycystin-2) (protein, UniProt Q13563 1-968)
chain: T1 sequence
binding [8]: binds

Second part, the molecule after the results:

binding [1]: binds
Molecule: N-terminal mCherry-tagged STIM1 (stromal interaction molecule 1) (from UniProt Q13586 23-685)

binding [6]: binds | binding [7]: binds
Molecule: endogenous STIM1 of mouse vascular smooth muscle cells (from UniProt P70302 23-685)
